From PubChem BioAssay AID2685 (National Center for Advancing Translational Sciences (NCATS), 2010)
The other results are listed elsewhere or left out. The main result of the screen is listed elsewhere. These columns were measured beside it and carry no call. Compounds called inactive in the main read-out are mostly missing here. The note in brackets gives the kind of curve behind each potency; many fits are weak.

Test: qHTS Assay for Lipid Storage Modulators in Drosophila S3 Cells;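 for cell number change: cells counted by Cell Tracker Red CMTPX staining in the red channel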
Conditions: BODIPY lipid droplet fluorescence, 18-24 h; for cell number change: measured here: cell count max response, cells fed with added oleic acid
Outline: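 Drosophila S3 cells loaded with oleic acid (400 uM, as added) and compounds at several concentrations; lipid droplets imaged by 488-nm laser-scanning cytometry, 500–530 nm intensity and object ratio to cell channel. Percent activity normalized to 20 uM Triacsin C.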

[1] = measured here: lipid fluorescence (Fed channel) AC50, cells fed with added oleic acid
[2] = measured here: cell number channel AC50, cells fed with added oleic acid

CC(OC(=O)c1ccc(-n2cnnn2)cc1)C(=O)Nc1ccccc1[N+](=O)[O-] (configuration not stated)
cell number change: -5.13% | AC50 [1]: 0.164 µM [falling, full curve, poor fit]

NC(=S)Nc1cccc2cnccc12
cell number change: 18.2% | AC50 [1]: 29.1 µM [falling, single point]

Cc1cccc(COc2ccc(S(=O)(=O)N3CCOCC3)cc2[N+](=O)[O-])c1
cell number change: 32.3% | AC50 [2]: 4.61 µM [rising, partial curve] | AC50 [1]: 18.4 µM [falling, partial curve]

O=C1CC(c2ccsc2)c2cc3c(cc2N1)OCCO3 (configuration not stated)
cell number change: 12.2% | AC50 [2]: 3.66 µM [falling, single point]

CC(=O)N1CCOc2ccc(S(=O)(=O)N3CCC(C(=O)Nc4ccccc4F)CC3)cc21
cell number change: 9.16% | AC50 [1]: 16.4 µM [rising, partial curve]

CCOc1ccc(Br)cc1-c1noc(-c2cccs2)n1
cell number change: -16% | AC50 [1]: 3.66 µM [rising, single point]

Cc1cc(Oc2ccccc2)nc(N)n1
cell number change: -31.4% | AC50 [2]: 32.6 µM [falling, single point] | AC50 [1]: 23.1 µM [falling, single point]

CC1CCCC(C)N1C(=O)COC(=O)c1ccc(O)cc1 (configuration not stated)
cell number change: 37.8% | AC50 [2]: 32.6 µM [rising, partial curve]

COc1ccc(OC)c(CN2CCN(C(=O)CCNC(=O)c3ccc(Br)cc3)CC2)c1
cell number change: 144% | AC50 [2]: 18.4 µM [rising, partial curve] | AC50 [1]: 16.4 µM [falling, single point]

CC(/C=N\NC(=O)Cn1c(C)nc2ccccc21)=C\c1ccccc1
cell number change: -39.5% | AC50 [2]: 18.4 µM [falling, partial curve] | AC50 [1]: 29.1 µM [falling, single point]

O=C(N/N=C/c1ccc(OCC(=O)N2CCCC2)cc1)C(=O)NC1CC1
cell number change: -0.951% | AC50 [1]: 29.1 µM [rising, single point]

CC(C)Cn1cnc2c1c(=O)n(CC(=O)O)c(=O)n2Cc1ccccc1
cell number change: -8.33%

Cc1cccc(CNC(=O)c2ccc(NC(=O)C3=CSCCO3)cc2)c1
cell number change: 22.4% | AC50 [2]: 0.13 µM [rising, full curve, poor fit] | AC50 [1]: 1.84 µM [rising, partial curve]

Oc1c(Cl)cc(Cl)cc1C=Nc1cc(C(F)(F)F)ccc1N1CCc2ccccc2C1
cell number change: 3.19% | AC50 [1]: 3.66 µM [rising, partial curve, poor fit]

CCN(CC1CCCN(CCc2cccc(F)c2)C1)C(=O)c1ccc(CSC)o1 (configuration not stated)
cell number change: -10.9% | AC50 [1]: 6.51 µM [rising, single point]

O=C(CSc1ccc2nnc(-c3cccnc3)n2n1)N1CCOCC1
cell number change: 4.29% | AC50 [2]: 1.46 µM [rising, partial curve, poor fit] | AC50 [1]: 6.51 µM [rising, single point]

Cc1ccc(NC(=O)COc2cccnc2[N+](=O)[O-])cc1S(=O)(=O)N1CCCCC1
cell number change: -22.4% | AC50 [1]: 29.1 µM [falling, single point]

O=C(C1CC1)N1CCN(C(c2ccccc2)c2ccccc2)CC1
cell number change: 39% | AC50 [2]: 18.4 µM [rising, partial curve] | AC50 [1]: 1.3 µM [rising, partial curve, poor fit]

CCOC(=O)c1cc(C(=O)Nc2ccc(S(=O)(=O)Nc3ccc(OC)cc3)cc2)nn1C
cell number change: -17.4%

Cc1cc(=O)oc(C)c1C(=O)NCCN1CCOCC1
cell number change: 2.88%

CC1CCCC(C(=O)O)N1C(=O)CCSSCCC(=O)N1C(C)CCCC1C(=O)O (configuration not stated)
cell number change: -33% | AC50 [2]: 3.26 µM [falling, partial curve, poor fit] | AC50 [1]: 5.8 µM [falling, full curve]

O=C(COc1ccccc1)N1CCCC1
cell number change: 42.1% | AC50 [2]: 13 µM [rising, partial curve, poor fit]

CN1CCN(C2CCCCC2NS(=O)(=O)c2ccc(Cl)cc2)CC1 (configuration not stated)
cell number change: -3.36%

C/C(=N\NC(=O)c1ccco1)c1ccc(NC(=O)c2cccs2)cc1
cell number change: 10.5% | AC50 [1]: 0.731 µM [rising, single point]

COc1ccc(Br)cc1/C=N/NC(=O)c1ccc(OC)c(OC)c1
cell number change: 22.2% | AC50 [2]: 3.66 µM [rising, single point] | AC50 [1]: 4.11 µM [rising, full curve, poor fit]

O=C(Nc1ccc(Oc2cccnc2)cc1)c1cccc([N+](=O)[O-])c1
cell number change: -9.7% | AC50 [1]: 0.651 µM [rising, full curve]

COc1ccc(C)cc1Nc1n[n+](C)c(-c2c3ccccc3cc3ccccc23)s1
cell number change: 11%

Cc1cc(C)cc(-c2nnc(SCc3ccc(C(=O)O)cc3)o2)c1
cell number change: 15.2%

CCC(C)(C)NC(=O)C(c1cccc(OC)c1OC)N(C(=O)CCC(=O)Nc1cc(C)on1)c1ccc2c(c1)OCCO2 (configuration not stated)
cell number change: 7.08%

COc1ccc(CNC(=O)C2CC(=O)N(c3ccc(OCC(=O)N4CCCCC4)cc3)C2)cc1 (configuration not stated)
cell number change: -1.85% | AC50 [1]: 0.146 µM [rising, full curve, poor fit]

O=C(CCN1C(=O)C2CCCCC2C1=O)Nc1nc2c(F)cc(F)cc2s1 (configuration not stated)
cell number change: -28.8% | AC50 [1]: 29.1 µM [falling, single point]

COC(=O)C1=C(C(=O)OC)C2C(C)=CC(C)=CN2C(C(=O)OC)=C1C(=O)OC (configuration not stated)
AC50 [2]: 0.731 µM [rising, single point]

O=C(NCC1CCCO1)c1cccc(NS(=O)(=O)c2ccccc2)c1 (configuration not stated)
cell number change: 2.04%

O=C(/C=C\Nc1ccc(S(=O)(=O)Nc2ncccn2)cc1)c1cccc2ccccc12
cell number change: 38.5% | AC50 [2]: 5.17 µM [rising, partial curve] | AC50 [1]: 7.31 µM [rising, partial curve]

CC1(C(=O)N2CCC(CC3CC(c4cccc(Br)c4)=NO3)(C(=O)NCC3CCCCC3)CC2)CC1 (configuration not stated)
cell number change: 1.94%

CCOC(=O)Cn1nnnc1C(C(C)C)N(Cc1cccs1)Cc1cc2cc(C)ccc2[nH]c1=O (configuration not stated)
cell number change: -3.29%

CCOC(=O)N1CCC(N2C(=O)c3ccc(C(=O)NCCC(C)C)cc3C2=O)CC1
cell number change: 15.3%

O=C(Cn1cnc2ccccc2c1=O)c1c[nH]c2ccccc12
cell number change: 11.9% | AC50 [1]: 3.26 µM [rising, single point]

CC(C)(C)c1ccc(C(=O)c2c[nH]c(C(=O)O)c2)cc1
cell number change: -15.4% | AC50 [2]: 6.51 µM [rising, single point]

CC(=O)c1ccc(O)c(CO)c1
cell number change: -4.79% | AC50 [1]: 0.0058 µM [falling, full curve, poor fit]

COc1cccc(C(=O)Nc2ccc(N(C)C)cc2)c1OC
cell number change: 32.7% | AC50 [2]: 2.06 µM [rising, full curve, poor fit] | AC50 [1]: 4.11 µM [rising, partial curve]

CCOc1cc(C#N)c(NC(=O)c2ccnn2C)cc1OCC
cell number change: 11.1%

CC(Nc1ccc(Cl)cc1)C(=O)NN (configuration not stated)
cell number change: 43.2% | AC50 [2]: 29.1 µM [rising, single point] | AC50 [1]: 29.1 µM [rising, single point]

CCOc1ncccc1C(=O)OCC(=O)Nc1c(C)cccc1C
AC50 [2]: 0.0517 µM [rising, full curve, poor fit] | AC50 [1]: 0.0651 µM [rising, full curve, poor fit]

O=c1cc(CO)occ1OCc1cccc(C(F)(F)F)c1
cell number change: -39.9% | AC50 [2]: 3.66 µM [falling, full curve] | AC50 [1]: 25.9 µM [falling, single point]

C#CCNC(=O)C1CCN(c2cc(C)nc(-c3ccccc3)n2)CC1
cell number change: -5.79% | AC50 [1]: 29.1 µM [falling, single point]

Cc1cc2c(n1-c1ccc(Br)cc1)CC(C)(C)CC2=O
cell number change: -7.94%

S=C(NC1CCCC1)N1CCN(c2cccc(Cl)c2)CC1
cell number change: -32%

O=C(c1ccccc1)c1ccc(OCCCN2CCCC2)cc1
cell number change: 6.35% | AC50 [1]: 16.4 µM [rising, single point]

Cc1ccnc(NS(=O)(=O)c2ccc(N3C(=O)C4CCCCC4C3=O)cc2)n1 (configuration not stated)
cell number change: -8.97%

Cc1ccc(C(=O)N2CCN(c3ncnc4c(C)csc34)CC2)cc1
cell number change: -25% | AC50 [1]: 16.4 µM [falling, single point]

O=C(CN1CCN(Cc2ccc(Cl)cc2)C1=O)NCCN1CCCC1
cell number change: -1.08% | AC50 [1]: 6.51 µM [rising, single point]

Cc1ccc(Cl)c(OCC(=O)Nc2ccc(S(=O)(=O)NC3=NCCCCC3)cc2)c1
cell number change: -21.7%

OCCCNc1nc(-c2ccc(Br)cc2)nnc1-c1ccc(Cl)cc1
cell number change: -3.46% | AC50 [1]: 6.51 µM [rising, single point]

CC1=NOC(=O)/C1=C\c1ccc(-c2ccc(Cl)c(C(=O)O)c2)o1
cell number change: -29.3% | AC50 [1]: 23.1 µM [falling, single point]

Cc1nnc(SCC(=O)N(C(C)C)C(C)C)nc1C
AC50 [2]: 3.26 µM [falling, partial curve]

CCOC(=O)[C@H]1[C@H]2COc3ccc(Cl)cc3[C@@H]2N2C(=O)CNC(=O)[C@@]12C
cell number change: 11.9% | AC50 [1]: 1.16 µM [rising, single point]

N#Cc1cccc(NC(=O)CSc2nnc(-c3n[nH]c4ccccc34)o2)c1
cell number change: -128%

COC(c1ccccc1)c1nnc(CCC(=O)N2CCN(Cc3cccs3)CC2)o1 (configuration not stated)
cell number change: -3.84% | AC50 [1]: 0.092 µM [falling, full curve, poor fit]

O=C1c2ccccc2C(=O)N1Cc1nc(-c2ccccc2)no1
cell number change: -0.578% | AC50 [2]: 3.26 µM [rising, partial curve, poor fit]

O=C(Nc1ccc([N+](=O)[O-])cc1)Nc1cnccn1
cell number change: 19.9%

CCOC(=O)C1=C(C)Nc2nnnn2C1c1ccc(OC)c(Br)c1 (configuration not stated)
cell number change: 2.99% | AC50 [1]: 0.411 µM [rising, partial curve]
